Among all 360,000 compounds or so, about 10,000 (2.8%) were called active. Inconclusive results, whose numbers are uncertain, are shown with a selection of clear calls. Calls follow the shape of the dose curve; as a rule, active = well fitted inhibition curve with a large enough effect; inconclusive = small, poorly fitted or top-dose-only effect; inactive = flat fitted curve, though single readings scatter. A potency beside an inconclusive call is a rough fit, not a confirmed value.
Target: Serine/threonine-protein kinase PLK1 (Homo sapiens) (UniProt P53350)
Test: qHTS for Inhibitors of PLK1-PDB (polo-like kinase 1 - polo-box domain): Primary Screen; also: nearly all actives have a fitted effect of over 65% in size; as to max response, negative = inhibition: series mostly up to about 57 µM
Conditions: Plk1 PBD binding of FITC phosphopeptide, fluorescence polarization
% is scaled to controls: 0 for no effect and ±100 for the full control effect; potency is read from the fitted curve at half-maximal effect.

Sequences of proteins named here, by UniProt entry; tags and fusion partners are left off.
UniProt P53350, whole entry, looked up: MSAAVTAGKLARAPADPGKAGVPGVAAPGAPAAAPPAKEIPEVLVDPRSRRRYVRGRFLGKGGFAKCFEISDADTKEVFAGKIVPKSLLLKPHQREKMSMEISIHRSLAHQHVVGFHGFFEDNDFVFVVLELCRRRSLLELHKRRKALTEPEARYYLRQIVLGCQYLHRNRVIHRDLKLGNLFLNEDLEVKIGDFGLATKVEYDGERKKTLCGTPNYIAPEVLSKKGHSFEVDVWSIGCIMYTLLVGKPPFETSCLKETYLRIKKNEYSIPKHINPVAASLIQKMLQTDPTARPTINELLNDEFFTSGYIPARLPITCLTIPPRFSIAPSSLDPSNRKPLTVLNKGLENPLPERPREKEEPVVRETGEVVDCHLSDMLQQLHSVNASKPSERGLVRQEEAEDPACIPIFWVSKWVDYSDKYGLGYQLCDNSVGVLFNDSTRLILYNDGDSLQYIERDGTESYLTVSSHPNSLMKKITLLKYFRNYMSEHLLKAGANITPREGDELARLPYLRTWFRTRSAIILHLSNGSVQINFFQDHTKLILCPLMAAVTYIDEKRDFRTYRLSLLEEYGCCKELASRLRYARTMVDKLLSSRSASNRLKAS

Row | Compound | max response, negative = inhibition | Potency
1 | O=C(COc1ccc(Cl)cc1)NNC(=O)c1ccncc1 | inactive: -10% | 
2 | CCC(C)C(NC(=O)/C(=C\c1ccccc1)NC(=O)c1ccc(OC)cc1)C(=O)O (centres undefined) |  | inconclusive: 23.8 µM [inhibitor, single point]
3 | Cc1nn(C)cc1C(=O)Nc1cc(Oc2ccc(Cl)cc2)cc([N+](=O)[O-])c1 |  | active: 26.7 µM
4 | C=CCOc1cccc(C2C(C(=O)c3ccc(C)o3)=C(O)C(=O)N2Cc2ccncc2)c1 (centres undefined) |  | inconclusive: 29.9 µM [inhibitor, partial curve]
5 | O=C(Nc1ccccc1[N+](=O)[O-])C1C(c2ccccc2)=C1c1ccccc1 | inactive: 0.94% | 
6 | CCOc1cc(/C=C(\C#N)C(=O)Nc2ccccc2C(=O)O)ccc1OC(=O)c1ccc(C)cc1 |  | active: 18.9 µM
7 | Cc1cccc(-n2c(CNC(=O)c3ccc(S(=O)(=O)N4CCCCC4)cc3)n[nH]c2=S)c1 | inactive: -2.03% | 
8 | Cc1ccc(CNC(=O)CCS(=O)(=O)c2ccc(Br)cc2)cc1 |  | active: 16.8 µM
9 | Cc1nnc(SC2CC(=O)N(c3ccccc3)C2=O)s1 (centres undefined) |  | inconclusive: 29.9 µM [inhibitor, single point]
10 | CCc1ccc(NC(=S)Nn2cnnc2)cc1 |  | active: 16.8 µM
11 | CCCN1C(=S)SC(C)(C)C1/[N+]([O-])=C/c1cccnc1 (centres undefined) |  | active: 23.8 µM
12 | COc1ccccc1Nc1nc(-c2sc(NC(=O)c3ccccc3)nc2C)cs1 |  | inconclusive: 26.7 µM [inhibitor, single point]
13 | CCOc1ccccc1Nc1nnc(SCC(=O)NC(Cc2c[nH]c3ccccc23)C(=O)O)s1 (centres undefined) | inactive: -13.3% | 
14 | COc1ccc(N2CCN(C(=O)c3[nH]c4ccc(OC)cc4c3C)CC2)cc1 |  | active: 26.7 µM
15 | Cc1cccc(C)c1Nc1nnc(SCC(=O)Nc2ncc(C(F)(F)F)cc2Cl)s1 |  | inconclusive: 29.9 µM [inhibitor, partial curve]
16 | Cn1ncc(Cl)c1C(=O)NC(=S)Nc1sc2c(c1C#N)CCCCC2 |  | active: 8.44 µM
17 | O=C(N[C@@H]1CC[C@@H](CCn2cc(-c3ccccc3)nn2)O[C@@H]1CO)c1cnccn1 | inactive: -9.95% | 
18 | CC1(c2ccccc2)NC(=O)N(CC(=O)N2CCN(S(=O)(=O)c3c(F)cccc3F)CC2)C1=O (centres undefined) |  | inconclusive: 37.7 µM [inhibitor, single point]
19 | CC(=O)Nc1ccc(NC(=O)C(C)N2CCN(S(=O)(=O)c3ccc(C)cc3)CC2)cc1 (centres undefined) |  | inconclusive: 37.7 µM [inhibitor, single point]
20 | CCN(CC)c1ccc(/C=N/Nc2cccc(C)c2)c(O)c1 |  | inconclusive: 11.9 µM [inhibitor, partial curve]
21 | CC(=O)Nc1ccc(-c2ccnc3c2CC(C(=O)NCc2cccc(Cl)c2)O3)cc1 (centres undefined) | inactive: 1.24% | 
22 | Cc1cccc(-n2c(O)c(C=Nc3ccc4c(c3)OCO4)c3ccccc3c2=O)n1 | inactive: -22.9% | 
23 | Cc1cccc(N2C(=O)C3CCCN3C2=S)c1C (centres undefined) |  | inconclusive: 21.2 µM [inhibitor, partial curve]
24 | COCc1[nH]c(=S)c(C#N)cc1C(=O)OC |  | inconclusive: 29.9 µM [inhibitor, partial curve]
25 | CN(CC(=O)Nc1ccc(OC(F)(F)F)cc1)C(=O)Cc1ccc2c(c1)CCC2 |  | inconclusive: 26.7 µM [inhibitor, single point]

Row | Compound | max response, negative = inhibition | Potency
26 | CO/N=C/C1CCN(c2ncc(C(F)(F)F)cc2Cl)C1=O (centres undefined) | inactive: -1.86% | 
27 | O=C(C1CC1)N(Cc1ccco1)c1nc(-c2ccccc2)cs1 | inactive: -1.67% | 
28 | S=C(c1ccc(-c2cccc(Cl)c2)o1)N1CCOCC1 |  | active: 18.9 µM
29 | O=C(O)c1ccccc1NCN1C(=O)C2CC=C(Cl)CC2C1=O (centres undefined) | inactive: -7.88% | 
30 | COc1ccc(S(=O)(=O)N(C)C[C@H]2OCc3cn(nn3)CCCC(=O)N([C@@H](C)CO)C[C@@H]2C)cc1 |  | inconclusive: 26.7 µM [inhibitor, partial curve]
31 | CCOC(=O)CSc1nc2c(sc(=S)n2CCc2ccccc2)c(=O)n1Cc1ccco1 |  | inconclusive: 33.6 µM [inhibitor, partial curve]
32 | CCOC(=O)c1c(NC(=O)C2C3C=CC(C3)C2C(=O)O)sc2c1CC(C)(C)OC2 (centres undefined) |  | active: 21.2 µM
33 | CCOc1ccccc1-n1nnnc1SCC(=O)O |  | inconclusive: 10.6 µM [inhibitor, partial curve]
34 | O=C(COc1ccc(Br)cc1Cl)NC1CCN(Cc2ccccc2)CC1 | inactive: -2.02% | 
35 | Cc1c(NC(=O)c2c(N)sc3c2CCCC3)c(=O)n(-c2ccccc2)n1C |  | inconclusive: 26.7 µM [inhibitor, single point]
36 | O=C(Nc1cccc(NC(=O)c2ccco2)n1)c1ccco1 | inactive: -1.92% | 
37 | CCS(=O)(=O)c1ccc2oc(Nc3ccc(C(C)C)cc3)nc2c1 |  | active: 2.67 µM
38 | Cc1cccc(NC(=O)C2CCN(c3ncnc4c3nc3n4CCCCC3)CC2)n1 |  | active: 26.7 µM
39 | COc1ccc(C(=O)c2ccc(OC)c(Br)c2)cc1Br |  | active: 18.9 µM
40 | C/C(=N\N=C(/N)SC1CC(=O)N(c2ccc(Cl)c(Cl)c2)C1=O)c1cccs1 (centres undefined) |  | inconclusive: 26.7 µM [inhibitor, single point]
41 | NC(=S)NNC(=O)C12CC3CC(CC(C3)C1)C2 |  | active: 26.7 µM
42 | CCN(CC)CCNC(=S)Nc1ccc2nc(N3CCN(CC)CC3)cc(C)c2c1 |  | inconclusive: 21.2 µM [inhibitor, partial curve]
43 | COc1ccc(/C=N\NC(=O)C2C(=O)NCC2c2ccccc2)cc1O (centres undefined) |  | active: 2.99 µM
44 | O=C(CN1C(=O)/C(=C/c2ccco2)SC1=S)Nc1ccc(O)c(C(=O)O)c1 |  | inconclusive: 3.77 µM [inhibitor, single point]
45 | N#Cc1c(SCC(=O)Nc2nc3ccccc3s2)sc2c(O)cc(=O)[nH]c12 |  | active: 23.8 µM
46 | O=C1C=CC(=O)N1N(c1ccccc1)c1ccccc1 |  | active: 4.74 µM
47 | C[C@H](NC(=O)c1[nH]cnc1C(=O)Nc1ccc(CNC(=O)OC(C)(C)C)cc1)C(=O)OC(C)(C)C |  | active: 21.2 µM
48 | CCN(C(=O)Cc1cccs1)c1nnc(-c2cccnc2)s1 | inactive: -2.56% | 
49 | O=C(CSc1ccsc1[N+](=O)[O-])NCc1ccccc1 |  | inconclusive: 37.7 µM [inhibitor, single point]
50 | CC1=C(C(=O)O)N2C(=O)C(NC(=O)c3ccc(F)cc3)C2SC1 (centres undefined) |  | active: 23.8 µM

Row | Compound | max response, negative = inhibition | Potency
51 | COc1ccc(C(=O)CSc2nnc(CNC(=O)c3ccc(OC)c(OC)c3)n2C)cc1 | inactive: -1.61% | 
52 | Cc1ccccc1N(C(=O)c1csnn1)C(C(=O)NC1CCCC1)c1ccncc1 (centres undefined) | inactive: -7.94% | 
53 | CC(Sc1ccc([N+](=O)[O-])cn1)C(=O)Nc1nccs1 (centres undefined) |  | inconclusive: 18.9 µM [inhibitor, partial curve]
54 | CCN=C(NCC)SC1CC(=O)N(c2cccc(OC)c2)C1=O (centres undefined) | inactive: -7.1% | 
55 | Cc1c(C(O)CN2CCN(Cc3ccc4c(c3)OCO4)CC2)c2ccccc2n1C (centres undefined) | inactive: -13.6% | 
56 | COc1cccc(-c2csc(N3CCN(Cc4ccccc4)CC3)n2)c1 |  | inconclusive: 37.7 µM [inhibitor, partial curve, poor fit]
57 | S=c1cn[nH]c2ccccc12 |  | inconclusive: 37.7 µM [inhibitor, partial curve]
58 | CS(=O)(=O)n1nc(OC(=O)c2cccs2)cc1N |  | inconclusive: 26.7 µM [inhibitor, single point]
59 | O=C(O)CC/C(=N/NC(=O)c1cn(-c2ccccc2)nc1-c1ccccc1)C(=O)O |  | inconclusive: 15 µM [inhibitor, partial curve]
60 | CCn1c(CNc2nc(-c3ccccc3)cs2)nnc1SCC(=O)NCc1ccco1 |  | inconclusive: 18.9 µM [inhibitor, partial curve]
61 | NC(=O)c1ccc(-n2nnnc2Oc2ccccc2)cc1 |  | active: 23.8 µM
62 | COc1ccc(CNC(=O)C(=O)NCc2cccnc2)cc1 | inactive: 5.46% | 
63 | Cc1ccc(C2CC(=O)NC(SCc3ccccc3)=C2C#N)cc1 (centres undefined) | inconclusive: -34.3% [inhibitor] | 
64 | c1ccc(-c2nnc3sc(-c4ccncc4)nn23)cc1 |  | inconclusive: 26.7 µM [inhibitor, partial curve]
65 | CCN(CC)C(=O)CC(c1cc(OC)c(OC)c(OC)c1)c1c(OC)cc(OC)c2c(-c3ccccc3)cc(=O)oc12 (centres undefined) |  | inconclusive: 23.8 µM [inhibitor, single point]
66 | CC(=O)N1CCN(C(=O)CC2OC(=O)c3ccccc32)CC1 (centres undefined) |  | active: 26.7 µM
67 | COC(=O)c1c(NC(=O)C2CCCCC2C(=O)O)sc2c1CCCCC2 (centres undefined) |  | active: 23.8 µM
68 | Cc1ccc(S(=O)(=O)/N=C(\N)Nc2nc(C)c3ccccc3n2)cc1 | inactive: -0.422% | 
69 | NC(=O)COC(=O)c1ccc(Cl)c(S(=O)(=O)N2CCCCCC2)c1 | inactive: -3.06% | 
70 | Cc1nn(-c2ccccc2)c2c1C(c1ccc([N+](=O)[O-])cc1)N1C(=N2)C(=O)Nc2ccccc21 (centres undefined) | inactive: -17.2% | 
71 | CC1=C(C(=O)Nc2ccccc2)C(c2ccc(Cl)cc2)n2c(s/c(=C/c3cccc(OCC(=O)O)c3)c2=O)=N1 (centres undefined) |  | inconclusive: 29.9 µM [inhibitor, partial curve]
72 | Cc1ccc(C)c(OC2=NS(=O)(=O)c3ccccc32)c1 |  | active: 11.9 µM
73 | N#Cc1ccc(CSc2nnc(NC(=O)C3CCCO3)s2)cc1 (centres undefined) |  | inconclusive: 26.7 µM [inhibitor, single point]
74 | CC(=O)Nc1cccc(N(C(=O)C2COc3ccccc3O2)C(C(=O)NC2CCCCC2)c2cn(C)nc2C)c1 (centres undefined) |  | inconclusive: 23.8 µM [inhibitor, partial curve]

14 structures already listed, ordered by molecular weight, high to low:
Row | Compound | max response, negative = inhibition | Potency
65 | CCN(CC)C(=O)CC(c1cc(OC)c(OC)c(OC)c1)c1c(OC)cc(OC)c2c(-c3ccccc3)cc(=O)oc12 (centres undefined) |  | inconclusive: 23.8 µM [inhibitor, single point]
60 | CCn1c(CNc2nc(-c3ccccc3)cs2)nnc1SCC(=O)NCc1ccco1 |  | inconclusive: 18.9 µM [inhibitor, partial curve]
52 | Cc1ccccc1N(C(=O)c1csnn1)C(C(=O)NC1CCCC1)c1ccncc1 (centres undefined) | inactive: -7.94% | 
55 | Cc1c(C(O)CN2CCN(Cc3ccc4c(c3)OCO4)CC2)c2ccccc2n1C (centres undefined) | inactive: -13.6% | 
59 | O=C(O)CC/C(=N/NC(=O)c1cn(-c2ccccc2)nc1-c1ccccc1)C(=O)O |  | inconclusive: 15 µM [inhibitor, partial curve]
67 | COC(=O)c1c(NC(=O)C2CCCCC2C(=O)O)sc2c1CCCCC2 (centres undefined) |  | active: 23.8 µM
69 | NC(=O)COC(=O)c1ccc(Cl)c(S(=O)(=O)N2CCCCCC2)c1 | inactive: -3.06% | 
73 | N#Cc1ccc(CSc2nnc(NC(=O)C3CCCO3)s2)cc1 (centres undefined) |  | inconclusive: 26.7 µM [inhibitor, single point]
63 | Cc1ccc(C2CC(=O)NC(SCc3ccccc3)=C2C#N)cc1 (centres undefined) | inconclusive: -34.3% [inhibitor] | 
62 | COc1ccc(CNC(=O)C(=O)NCc2cccnc2)cc1 | inactive: 5.46% | 
58 | CS(=O)(=O)n1nc(OC(=O)c2cccs2)cc1N |  | inconclusive: 26.7 µM [inhibitor, single point]
61 | NC(=O)c1ccc(-n2nnnc2Oc2ccccc2)cc1 |  | active: 23.8 µM
64 | c1ccc(-c2nnc3sc(-c4ccncc4)nn23)cc1 |  | inconclusive: 26.7 µM [inhibitor, partial curve]
57 | S=c1cn[nH]c2ccccc12 |  | inconclusive: 37.7 µM [inhibitor, partial curve]
